Data as given in EP1580187A1, “Apoptogenic and antiproliferative analogs of ceramide” (Deigner, Hans-Peter, priority 2004, dated 2005).
Some of these results come from one statement about several compounds together.

What follows are compounds tested on poly(ADP-ribose) polymerase (assay: PARP cleavage detected by Western Blotting). Conditions: time and concentration dependent.
Type: cell-based, human
For `CCCCCC(=O)N[C@@H](CO)[C@H](O)/C1=C/CCCCCC1` [Compound 3, Hexanoic acid [(1S,2R)-2-((E)-cyclooct-1-enyl)-2-hydroxy-1-hydroxymethyl-ethyl]-amide], the “proteolytic fragmentation of poly(ADP-ribose) polymerase” value (shortened to “proteolytic fragmentation”) was “presence of the low molecular fragment (85 kDa) of poly(ADP-ribose) polymerase”.
`CCCCCC(=O)N[C@@H](CO)[C@@H](O)c1ccc([N+](=O)[O-])cc1` [Compound 1, Hexanoic acid [(1S,2S)-2-hydroxy-1-hydroxymethyl-2-(4-nitrophenyl)-ethyl]-amide] was tested, and the “proteolytic fragmentation” value was “presence of the low molecular fragment (85 kDa) of poly(ADP-ribose) polymerase”.
For `CCCCCC(=O)N[C@@H](CO)[C@H](O)C1=CCCC1` [Compound 2, Hexanoic acid ((1S,2R)-2-cyclopent-1-enyl-2-hydroxy-1-hydroxymethyl-ethyl)-amide], the “proteolytic fragmentation” value was “presence of the low molecular fragment (85 kDa) of poly(ADP-ribose) polymerase”.
For `CC(C)(C)OC(=O)N1[C@H]([C@H](O)/C2=C/CCCCCC2)COC1(C)C` [Compound 5, (S)-4-[(R)-((E)-Cyclooct-1-enyl)-hydroxy-methyl]-2,2-dimethyloxazolidine-3-carboxylic acid tert-butyl ester], the “proteolytic fragmentation” value was “presence of the low molecular fragment (85 kDa) of poly(ADP-ribose) polymerase”.
`CC(C)(C)OC(=O)N1[C@H]([C@H](O)C2=CCCC2)COC1(C)C` [Compound 4, (S)-4-((R)-Cyclopent-1-enyl-hydroxy-methyl)-2,2-dimethyloxazolidine-3-carboxylic acid tert-butyl ester] was tested, and the “proteolytic fragmentation” value was “presence of the low molecular fragment (85 kDa) of poly(ADP-ribose) polymerase”.
